Patent publication US20100029973A1, “Fatty acid analogues for equilibrating bone mineral density” (priority 2005, published 2010)
Entries after “also recorded” stand apart in the source; their conditions may differ. At least one structure is not confirmed: it was looked up by name or label, or the drawing left a doubt.

System: preosteoblast cell line MC3T3-E1
Experiment: release of OPG, RANKL and IL6 from preosteoblast cell line MC3T3-E1
Assay type: cell-based
Conditions: preosteoblasts (MC3T3-E1)
From the text: The effect of the PPAR agonists on release of osteoprotegerin (OPG), RANKL and IL6 from the preosteoblast cell line MC3T3-E1 was investigated. […] Wyeth 14643, fenofibrate and TTA were also shown to stimulate OPG release and inhibit IL6 release from preosteoblasts, while no effects on RANKL could be detected.

Row | SMILES | IL6 release | OPG release | RANKL release | IL6 release (listed as Pioglitazone) | OPG release (listed as Pioglitazone)
1 | CC(C)OC(=O)C(C)(C)Oc1ccc(C(=O)c2ccc(Cl)cc2)cc1 [fenofibrate] | inhibit; also recorded: stimulated | stimulated | no effects | – | –
2 | CCc1ccc(CCOc2ccc(CC3SC(=O)NC3=O)cc2)nc1 (stereo not shown) [pioglitazone] | did the opposite | did the opposite | – | stimulated | tended to inhibit
